# Screen size: about 330,000 compounds; about 7,700 (2.3%) were called active. The shares of active, inactive and inconclusive entries below differ from those in the screen. Calls come from the whole dose curve; as a rule, active = well fitted inhibition curve with a large enough effect; inconclusive = small, poorly fitted or top-dose-only effect, or effect the other way; inactive = flat fitted curve, though single readings scatter. Where the call is inconclusive, the potency comes from a doubtful curve fit.
# Experiment: qHTS screen for small molecules that inhibit ELG1-dependent DNA repair in human embryonic kidney (HEK293T) cells expressing luciferase-tagged ELG1; note: nearly all actives have a fitted effect of over 55% in size
# Details: HEK293T ELG1-luciferase reporter, luminescence, 16 h, DNA damage induced by 5-fluorouridine; series mostly up to 46.1 µM
# Outline: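 Overnight (16 hr) co-exposure of 2,000 cells/well to 5-fluorouridine and compound at 37 °C preceded detection. Luciferase was quantified via ONE-Glo luminescence; loss of signal denotes inhibition.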
# Potency is the fitted concentration of half-maximal effect.
row,SMILES,Potency
1,O=NN(CCCl)C(=O)NCCCl,"inconclusive: 20 µM [activator, partial curve, poor fit]"
2,CC(C)Oc1cccc(NC(=O)c2cccn(Cc3ccc4c(c3)OC(F)(F)O4)c2=O)c1,"inconclusive: 16.4 µM [inhibitor, partial curve, poor fit]"
3,O=[N+]([O-])c1ccc(Sc2nc3ccccc3o2)c([N+](=O)[O-])c1,"inconclusive: 29.1 µM [inhibitor, single point]"
4,O=[N+]([O-])c1ccc(N2CCCC2)cc1N/N=C1\CN2CCC1CC2,"inconclusive: 6.51 µM [inhibitor, partial curve, poor fit]"
5,O=[N+]([O-])c1ccccc1-c1cc(-c2ccccc2)cc(-c2ccccc2)[n+]1Cc1ccccc1Cl,"inconclusive: 28.2 µM [inhibitor, single point]"
6,CCCCCn1c(N)c(C(=O)NCc2cccs2)c2nc3ccccc3nc21,"inconclusive: 29.1 µM [inhibitor, single point]"
7,Nc1c(C(=O)OC2CCCCC2)c2nc3ccccc3nc2n1CC1CCCO1 (stereo not drawn),"inconclusive: 16.4 µM [inhibitor, partial curve]"
8,CC[C@@]1(C(=O)OC)N[C@H](CN(C)C(=O)Nc2ccc(OC)cc2)[C@@H]2C(=O)N(Cc3ccccc3)C(=O)[C@@H]21,"inconclusive: 23.1 µM [activator, partial curve]"
9,Oc1ccc(-[n+]2c(-c3ccccc3)cc(-c3ccccc3)cc2-c2ccccc2)cc1,"inconclusive: 15.8 µM [inhibitor, single point]"
10,Cc1onc(-c2ccccc2Cl)c1C(=O)NCc1ccc2c(c1)cc(C)n2C,"inconclusive: 29.1 µM [inhibitor, single point]"
11,O=C(c1cccn2c(=O)c3cc(Br)ccc3nc12)N1CCC2(CC1)OCCO2,"inconclusive: 29.1 µM [activator, partial curve, poor fit]"
12,Cc1ccc(-n2nc(C)cc2NC(=O)COc2cc(C)cc3oc(=O)c4c(c23)CCC4)cc1,"inconclusive: 11.6 µM [inhibitor, partial curve]"
13,Cc1cnn(-c2cc(Oc3ccccc3)ncn2)c1,"inconclusive: 2.31 µM [activator, partial curve, poor fit]"
14,O=c1[nH]c(=S)[nH]c(O)c1N=Nc1cc2c(cc1[N+](=O)[O-])OCO2,inactive
15,COC(=O)C1=C(c2ccc(Cl)c(C(F)(F)F)c2)C[C@@H]2CC[C@H]1N2C(=O)NCCO,inactive
16,COc1ccc(OC)c(C(Nc2ccccc2)P(=O)(OC(C)C)OC(C)C)c1 (stereo not drawn),"inconclusive: 6.51 µM [inhibitor, single point]"
17,CC(C(=O)Nc1ccc(Br)cc1C(=O)c1ccccc1)N1CCOCC1 (stereo not drawn),inactive
18,C=CCN1C(=O)NC(=O)/C(=C/c2ccc(OC)c(CSc3ccccn3)c2)C1=O,inactive
19,COc1cccc(-c2nc3ccc(N4CCN(C)CC4)cc3[nH]2)c1,"inconclusive: 1.16 µM [activator, partial curve]"
20,NC(=O)Nc1ccc(C(=O)OCC(=O)Nc2ccc(Cl)cc2C(=O)c2ccccc2)cc1,active: 20.6 µM
21,CC(=O)Nc1ccccc1C(=O)OCC(=O)c1ccc2ccccc2c1,"inconclusive: 17.8 µM [inhibitor, single point]"
22,c1ccc2sc(C3CCCNC3)nc2c1 (stereo not drawn),"inconclusive: 20.6 µM [activator, single point]"
23,CCCCn1c(N)c(C(=O)OCCOC)c2nc3ccccc3nc21,active: 8.2 µM

# Taken from above for reference:
row,SMILES,Potency
11,O=C(c1cccn2c(=O)c3cc(Br)ccc3nc12)N1CCC2(CC1)OCCO2,"inconclusive: 29.1 µM [activator, partial curve, poor fit]"
12,Cc1ccc(-n2nc(C)cc2NC(=O)COc2cc(C)cc3oc(=O)c4c(c23)CCC4)cc1,"inconclusive: 11.6 µM [inhibitor, partial curve]"
13,Cc1cnn(-c2cc(Oc3ccccc3)ncn2)c1,"inconclusive: 2.31 µM [activator, partial curve, poor fit]"

# Remaining list, next part

row,SMILES,Potency
1,Cc1cccc(NP(=O)(Oc2ccccc2F)Oc2ccccc2F)c1,active: 18.4 µM
2,CSc1ccc(CN2CCN(C(=O)COc3ccc(C)cc3)CC2)cc1,"inconclusive: 16.4 µM [inhibitor, single point]"
3,COC(=O)[C@@H]1C(OC(=O)c2ccccc2)CC2CCC1N2C (stereo partly drawn),inactive
4,O=C(NC1CCCCC1)C1CCN(C(=O)c2ccc(-c3ccccc3)cc2)CC1,"inconclusive: 20.6 µM [inhibitor, partial curve, poor fit]"
5,COc1cccc(CNCCc2ccc3c(c2)OCO3)c1OC,"inconclusive: 8.91 µM [inhibitor, partial curve, poor fit]"
6,COc1cccc(OC)c1C(=O)Nc1nc(N)n(-c2ccccc2)n1,inactive
7,c1ccc(-c2cc(-c3ccccc3)[n+](-c3ccccc3)c(-c3ccccc3)c2)cc1,active: 2.31 µM
8,N#CCCn1cc(C(=O)Nc2ccc(F)cc2)c(-c2ccccc2)n1,inactive
9,O=C(OCc1c(-c2ccccc2)ncc2ccccc12)c1ccc(C(F)(F)F)cc1,"inconclusive: 4.11 µM [inhibitor, single point]"
10,C[C@]12CCC3C(CC[C@H]4C[C@H](O)CC[C@]34C)C1[C@@H](O)C[C@@H]2O (stereo partly drawn),inactive
11,Cc1ccc(N2C(=O)/C(=C/c3ccc(CN(CCC#N)S(C)(=O)=O)o3)C(=O)NC2=S)cc1,inactive
12,CC1=Nc2ccccc2/C1=C/c1c(O)n(C)c(=O)[nH]c1=O,inactive
13,COC(=O)C1=C(c2ccc(OCc3ccccc3)cc2)C[C@@H]2CC[C@H]1N2C(=O)NCc1ccc([N+](=O)[O-])cc1,"inconclusive: 11.6 µM [inhibitor, partial curve, poor fit]"
14,COc1cc(C(=O)OC2C[C@H]3CC[C@@H](C2)N3)ccc1O (stereo partly drawn),inactive
15,CC(C)c1ccc(N2C(=O)NC(=O)/C(=C/c3cnc(-c4ccccc4)nc3)C2=O)cc1,"inconclusive: 9.2 µM [activator, partial curve, poor fit]"
16,COc1ccc(NC(=O)O/N=C/c2ccccc2)cc1,"inconclusive: 14.6 µM [activator, partial curve]"
17,Cc1ccc(CN2CCN(Cc3ccccc3F)CC2)cc1,"inconclusive: 13 µM [inhibitor, partial curve, poor fit]"
18,COc1cccc(O)c1CN1CCCC(C(=O)c2ccccc2SC)C1 (stereo not drawn),"inconclusive: 32.6 µM [inhibitor, single point]"
19,CCCOC(=O)COc1cc(C)cc2oc(=O)c3c(c12)CCC3,"inconclusive: 25.1 µM [activator, single point]"
20,Cc1ccc2nc(N3CCN(C)CC3)[nH]c2c1,"inconclusive: 5.8 µM [activator, partial curve]"
21,COC(=O)C1=C(c2ccc(F)cc2OCc2ccccc2)C[C@@H]2CC[C@H]1N2C(=O)NCCOc1ccccc1Cl,inactive
22,CCCCC1(CN2CCCC2=O)C(=O)NC(=O)NC1=O,"inconclusive: 20.6 µM [activator, single point]"
23,O=C(O)C1C2CCC(O2)C1C(=O)NC1CCCCC1 (stereo not drawn),"inconclusive: 14.6 µM [activator, partial curve]"

row,SMILES,Potency
1,Cc1ccc(CN(Cc2ccccc2)C(=S)NCC(=O)N2CCC3(CC2)OCCO3)o1,inactive
2,CCOC(=O)c1c(-c2ccc(OC)cc2)oc2ccc(OC(=O)N(C)C)cc12,"inconclusive: 18.4 µM [inhibitor, single point]"
3,CCCNC1=C(C)C(=O)C2=C(C1=O)C(COC(N)=O)[C@]1(OC)C3NC3CN21 (stereo partly drawn),"inconclusive: 5.8 µM [inhibitor, partial curve]"
4,CCN(CCCNS(=O)(=O)c1ccc2c(c1)oc(=O)n2C)c1cccc(C)c1,"inconclusive: 16.4 µM [inhibitor, single point]"
5,C=CCn1c(O)c(C(CC)=NCC2CCCO2)c(=O)[nH]c1=O (stereo not drawn),"inconclusive: 16.4 µM [activator, single point]"
6,COC(=O)C1=C(c2ccc(F)cc2OCc2ccccc2)C[C@@H]2CC[C@H]1N2C(=O)NCc1ccc(C)cc1,"inconclusive: 18.3 µM [inhibitor, single point]"
7,CCCCCCCSc1cc(OC)c(CCNC)cc1OC,inactive
8,Cn1c(O)c(C=NCc2cccs2)c(=O)n(C)c1=O,inactive
9,CCCCCCn1c(O)c(C=NC2CCN(Cc3ccccc3)CC2)c(=O)[nH]c1=O,active: 20.6 µM
10,O=S(=O)(NC1CCCC1)OCC(Cl)(Cl)Cl,"inconclusive: 1.83 µM [activator, partial curve, poor fit]"
11,CN1CCN(CC#CCOc2ccc(Cl)cc2)CC1,"inconclusive: 29.1 µM [activator, partial curve, poor fit]"
12,O=C1c2ccccc2C2(c3ccc(Cl)cc3)NCCN12 (stereo not drawn),inactive
13,CCOC(=O)C1=Nc2ccccc2/C1=C\c1c(O)n(C)c(=O)n(C)c1=O,active: 20.6 µM
14,Cn1c(=O)oc2cc(S(=O)(=O)N3CCC(C(=O)N4CC=C(c5ccccc5)CC4)CC3)ccc21,"inconclusive: 13 µM [inhibitor, partial curve]"
15,CCCc1cc(=O)oc2cc(OCC(=O)N3CCN(Cc4ccc5c(c4)OCO5)CC3)ccc12,"inconclusive: 16.4 µM [inhibitor, partial curve]"
16,N#C/C(=C(/O)c1ccc(S(=O)(=O)N(CCCl)CCCl)cc1)c1nc2ccccc2[nH]1,inactive
17,Cc1ccc(Cn2nnnc2CN2CCC(n3nnc4cc(C(F)(F)F)ccc43)CC2)cc1,"inconclusive: 23.1 µM [inhibitor, single point]"
18,CCn1c(P(C)(=O)O)nc2cc(NC(=O)c3ccccc3F)ccc21,"inconclusive: 18.3 µM [activator, partial curve, poor fit]"
19,COc1ccc2[nH]cc(CCN=C(N)N)c2c1,inactive
20,Nc1c2c(nc3ccccc13)CCN(Cc1ccccc1)C2,inactive
21,Nc1ccc(N=Nc2ccccc2)cc1,"inconclusive: 20.6 µM [activator, partial curve]"
22,Cc1cccc(C)c1NC(=O)c1cccn(Cc2ccc3c(c2)OC(F)(F)O3)c1=O,"inconclusive: 16.4 µM [inhibitor, partial curve]"

# Three entries from above, ordered by number of heavy atoms, smallest number first.
row,SMILES,Potency
12,O=C1c2ccccc2C2(c3ccc(Cl)cc3)NCCN12 (stereo not drawn),inactive
7,CCCCCCCSc1cc(OC)c(CCNC)cc1OC,inactive
17,Cc1ccc(Cn2nnnc2CN2CCC(n3nnc4cc(C(F)(F)F)ccc43)CC2)cc1,"inconclusive: 23.1 µM [inhibitor, single point]"
